Laboratory results: US6307080A, “Water-soluble zinc pyruvates or their hydrates, method for the product ion thereof and their use” (SKW Trostberg Aktiengesellschaft, priority 1998, dated 2001)
Like-named read-outs stand apart in the source and are kept apart here. For some of these results: The name of at least one read-out is uncertain. For some of these results: At least one compound was matched to its structure with a doubt left.

Legend:
[1] = cited from earlier work
[2] = tested on: influenza A/Chile/1/83 or influenza B/Singapore/27/79 (viral hemagglutination of erythrocytes); assay: Inhibition of influenza-induced viral hemagglutination (vHAI) of erythrocytes (RBC); format: cell-based, influenza A and influenza B viruses; settings: order of magnitude

Row | Compound | mean absorption rate of zinc ([1]; from different types of bread) | mean absorption rate of zinc ([1]; from meat from various types of poultry) | average bioavailability ([1]; zinc from food) [%] | inhibitory constants determined in vHAI [2] [µg/mL]
1 | [Zn] [zinc] | around 10% | up to 40% | 20 | –
2 | zinc pyruvate | – | – | – | ~50
